The record followed here is patent publication USRE39849 (CHEMOCENTRYX, dated 2007).

Sequences of proteins named here, by UniProt entry; tags and fusion partners are left off. Residues count along the entry.
UniProt P84444, residues 24-133: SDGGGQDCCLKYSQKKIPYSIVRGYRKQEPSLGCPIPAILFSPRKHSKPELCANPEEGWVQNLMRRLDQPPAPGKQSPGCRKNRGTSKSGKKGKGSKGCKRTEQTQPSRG

These are yes or no findings as the source states them, for the method shown. Some binding calls cover weakened binding; strength is not graded here. Sequences can lack the tags named with a protein.

Experiment [1] deals with T1, human CCX CKR with N-terminal Flag epitope, stably expressed on HEK293 cells (human) (UniProt Q9NPB9).
T1 sequence: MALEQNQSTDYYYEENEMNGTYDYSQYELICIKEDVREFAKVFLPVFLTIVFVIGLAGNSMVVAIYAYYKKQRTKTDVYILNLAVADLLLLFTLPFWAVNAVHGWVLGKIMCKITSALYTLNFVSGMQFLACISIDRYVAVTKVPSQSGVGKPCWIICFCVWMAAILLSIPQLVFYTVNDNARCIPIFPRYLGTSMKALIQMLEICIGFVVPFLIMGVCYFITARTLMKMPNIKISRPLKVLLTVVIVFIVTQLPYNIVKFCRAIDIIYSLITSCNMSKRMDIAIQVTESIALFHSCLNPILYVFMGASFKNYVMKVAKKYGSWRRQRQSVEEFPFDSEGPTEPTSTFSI
Nature of the experiment: radioligand binding competition on CCX CKR stable transfectants.

For experiment [2], the target named is T1, human CCX CKR with N-terminal Flag epitope, stably expressed on HEK293 cells (human). As to the kind of experiment: displacement of 125I-ELC (or 125I-TECK) from CCX CKR stable transfectants, cold chemokine at 200 nM.
The target in experiment [3] is T2, human CCX CKR with N-terminal Flag epitope, stably expressed on HEK293 cells (human), Q9NPB9.
T2 chain: T1 sequence
As to the kind of experiment: radioligand binding competition on CCX CKR stable transfectants. The note with it: remark: other sources report otherwise.

In experiment [4] the target is T2, human CCX CKR with N-terminal Flag …. As to the kind of experiment: displacement of 125I-ELC (or 125I-TECK) from CCX CKR stable transfectants, cold chemokine at 200 nM. The conditions noted are these: remark: other sources report otherwise.

Regarding “murine SLC (from UniProt P84444 24-133) (ligand)”, the binding result in experiment [1] and in experiment [2] was “binds” each time.

B1: BLC (B-lymphocyte chemoattractant), O43927 23-109 (ligand, UniProt O43927 23-109, looked up)
chain: VLEVYYTSLRCRCVQESSVFIPRRFIDRIQILPRGNGCPRKEIIVWKKNKSIVCVDPQAEWIQRMMEVLRKRSSSTLPVPVFKRKIP
In the case of B1, the binding result in experiment [3] and in experiment [4] was “binds” in each case.

B2: vMIPII from the human Kaposi's sarcoma herpesvirus HHV8 (ligand)
chain: LGASWHRPDKCCLGYQKRPLPQVLLSSWYPTSQLCSKPGVIFLTKRGRQVCADKSKDWVKKLMQQLPVTAR
As to B2, the binding result in experiment [1] and in experiment [2] was “binds” in each case.
